Experimental data: PubChem BioAssay AID686938 (Drosophila RNAi Screening Center, 2013)
In all, the deposit lists about 23,000 reagents; shown is a random part of those with a known target gene and a result. Over the whole deposit, 75 (0.33%) are marked active. 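Raw plate signals without normalisation; calls rest on plate z-scores that were not deposited; ratio present for only 364 wells.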 Entries without a mark were called inactive. The numbers tell different reagents against one gene apart. Reagent sequences are not shown. Not stated in the record: the dose of the treatment.

Purpose: 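Fly genes required for calcium entry once internal stores are emptied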 (primary screen)
System: Drosophila S2R+ cells
Reagent: long dsRNA against Drosophila genes, about 0.25 µg dsRNA per well, roughly 10,000 cells
Duration: 5 days of knock-down before the calcium assay
Treatment: thapsigargin (SERCA pump blocker) to empty calcium stores; entry signal taken 4 min after adding it
Measured: 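Duplicate raw fluo-4 intensities per well from a plate reader, at rest and four minutes after thapsigargin emptied calcium stores; entry-to-rest ratio filled for only some wells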
Direction: calcium entry signal: higher = stronger calcium signal after store depletion; entry to resting ratio: higher = more calcium entry relative to resting level; resting calcium signal: higher = higher resting calcium signal
Rule for the call: 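Called when the plate z-score of the entry-to-rest ratio, mean of duplicates, falls below −3; wells with low overall dye signal (Fmax z below −2) or more than five off-targets excluded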
Calls: active = strongly reduced calcium entry; inactive = no strong reduction

Mal-B2: calcium entry signal, replicate 1 (fluorescence units) = 4.71e7; calcium entry signal, replicate 2 (fluorescence units) = 3.05e7; resting calcium signal, replicate 1 (fluorescence units) = 2.39e7; resting calcium signal, replicate 2 (fluorescence units) = 1.67e7
Rpt4: calcium entry signal, replicate 1 (fluorescence units) = 1.29e7 (active); calcium entry signal, replicate 2 (fluorescence units) = 1.56e7; resting calcium signal, replicate 1 (fluorescence units) = 9.98e6; resting calcium signal, replicate 2 (fluorescence units) = 1.08e7
CG7990 #1: calcium entry signal, replicate 1 (fluorescence units) = 2.95e7; calcium entry signal, replicate 2 (fluorescence units) = 3.98e7; resting calcium signal, replicate 1 (fluorescence units) = 1.54e7; resting calcium signal, replicate 2 (fluorescence units) = 1.70e7
CG7990 #2: calcium entry signal, replicate 1 (fluorescence units) = 5.90e7; calcium entry signal, replicate 2 (fluorescence units) = 6.31e7; resting calcium signal, replicate 1 (fluorescence units) = 2.76e7; resting calcium signal, replicate 2 (fluorescence units) = 2.56e7
CG7990 #3: calcium entry signal, replicate 1 (fluorescence units) = 4.63e7; calcium entry signal, replicate 2 (fluorescence units) = 2.44e7; resting calcium signal, replicate 1 (fluorescence units) = 2.25e7; resting calcium signal, replicate 2 (fluorescence units) = 1.06e7
phyl: calcium entry signal, replicate 1 (fluorescence units) = 2.35e7; calcium entry signal, replicate 2 (fluorescence units) = 3.21e7; resting calcium signal, replicate 1 (fluorescence units) = 1.30e7; resting calcium signal, replicate 2 (fluorescence units) = 1.40e7

Continued, starting with the last 2 of the part before.
CG7990 #3: calcium entry signal, replicate 1 (fluorescence units) = 4.63e7; calcium entry signal, replicate 2 (fluorescence units) = 2.44e7; resting calcium signal, replicate 1 (fluorescence units) = 2.25e7; resting calcium signal, replicate 2 (fluorescence units) = 1.06e7
phyl: calcium entry signal, replicate 1 (fluorescence units) = 2.35e7; calcium entry signal, replicate 2 (fluorescence units) = 3.21e7; resting calcium signal, replicate 1 (fluorescence units) = 1.30e7; resting calcium signal, replicate 2 (fluorescence units) = 1.40e7
fra: calcium entry signal, replicate 1 (fluorescence units) = 3.21e7; calcium entry signal, replicate 2 (fluorescence units) = 5.02e7; resting calcium signal, replicate 1 (fluorescence units) = 1.64e7; resting calcium signal, replicate 2 (fluorescence units) = 2.08e7
CG17169: calcium entry signal, replicate 1 (fluorescence units) = 3.29e7; calcium entry signal, replicate 2 (fluorescence units) = 4.44e7; resting calcium signal, replicate 1 (fluorescence units) = 1.82e7; resting calcium signal, replicate 2 (fluorescence units) = 2.04e7
CG12516: calcium entry signal, replicate 1 (fluorescence units) = 3.45e7; calcium entry signal, replicate 2 (fluorescence units) = 5.40e7; resting calcium signal, replicate 1 (fluorescence units) = 1.77e7; resting calcium signal, replicate 2 (fluorescence units) = 2.17e7
Prosalpha3: calcium entry signal, replicate 1 (fluorescence units) = 2.38e7; calcium entry signal, replicate 2 (fluorescence units) = 2.95e7; resting calcium signal, replicate 1 (fluorescence units) = 1.58e7; resting calcium signal, replicate 2 (fluorescence units) = 1.73e7
CG7156: calcium entry signal, replicate 1 (fluorescence units) = 4.36e7; calcium entry signal, replicate 2 (fluorescence units) = 4.03e7; resting calcium signal, replicate 1 (fluorescence units) = 2.12e7; resting calcium signal, replicate 2 (fluorescence units) = 1.82e7
CycK: calcium entry signal, replicate 1 (fluorescence units) = 3.12e7; resting calcium signal, replicate 1 (fluorescence units) = 1.79e7
CG9483: calcium entry signal, replicate 1 (fluorescence units) = 4.28e7; resting calcium signal, replicate 1 (fluorescence units) = 1.94e7
CG11378: calcium entry signal, replicate 1 (fluorescence units) = 3.84e7; calcium entry signal, replicate 2 (fluorescence units) = 5.11e7; entry to resting ratio = 2; resting calcium signal, replicate 1 (fluorescence units) = 1.93e7; resting calcium signal, replicate 2 (fluorescence units) = 2.10e7
